In article PMC8384837:
Positions count from the first letter of the chain named. This is one part of the list. At the low end of the ranking the order means little.

Tests used:
Conditions in all cases: yeast three-hybrid, YBZ-1, SC-Leu-His + 0.5 mM 3-AT, 4 days
[1] = molecular target: T1, PUM1 PUF domain R6-RHR N1043R + Y1044H + Q1047R (UniProt Q14671)
T1 sequence: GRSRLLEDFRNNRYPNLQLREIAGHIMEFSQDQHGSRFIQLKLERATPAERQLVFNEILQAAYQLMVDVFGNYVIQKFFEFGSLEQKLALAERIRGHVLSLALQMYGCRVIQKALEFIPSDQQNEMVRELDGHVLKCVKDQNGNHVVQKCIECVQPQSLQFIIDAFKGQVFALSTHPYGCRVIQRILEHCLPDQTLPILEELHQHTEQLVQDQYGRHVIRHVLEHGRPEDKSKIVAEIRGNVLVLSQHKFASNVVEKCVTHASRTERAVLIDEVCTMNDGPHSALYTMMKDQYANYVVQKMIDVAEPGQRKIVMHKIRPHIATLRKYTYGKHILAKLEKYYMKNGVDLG

[2] = molecular target: T2, PUM1 PUF domain R6-RRK N1043R + Y1044R + Q1047K (UniProt Q14671)
T2 sequence: T1 sequence with H217R, R220K

[3] = molecular target: T3, PUM1 PUF domain R6-RWC N1043R + Y1044W + Q1047C (UniProt Q14671)
T3 sequence: T1 sequence with H217W, R220C

[4] = molecular target: T4, PUM1 PUF domain R6-RYA N1043R + Q1047A (UniProt Q14671)
T4 sequence: T1 sequence with H217Y, R220A

[5] = molecular target: T5, PUM1 PUF domain R6-SFC N1043S + Y1044F + Q1047C (UniProt Q14671)
T5 sequence: T1 sequence with R216S, H217F, R220C

[6] = molecular target: T6, PUM1 PUF domain R6-SFR N1043S + Y1044F + Q1047R (UniProt Q14671)
T6 sequence: T1 sequence with R216S, H217F

[7] = molecular target: T7, PUM1 PUF domain R6-SFS N1043S + Y1044F + Q1047S (UniProt Q14671)
T7 sequence: T1 sequence with R216S, H217F, R220S

[8] = molecular target: T8, PUM1 PUF domain R6-SHR N1043S + Y1044H + Q1047R (UniProt Q14671)
T8 sequence: T1 sequence with R216S

[9] = molecular target: T9, PUM1 PUF domain R6-SRR N1043S + Y1044R + Q1047R (UniProt Q14671)
T9 sequence: T1 sequence with R216S, H217R

[10] = molecular target: T10, PUM1 PUF domain R6-SWA N1043S + Y1044W + Q1047A (UniProt Q14671)
T10 sequence: T1 sequence with R216S, H217W, R220A

[11] = molecular target: T11, PUM1 PUF domain R6-SWR N1043S + Y1044W + Q1047R (UniProt Q14671)
T11 sequence: T1 sequence with R216S, H217W

[12] = molecular target: T12, PUM1 PUF domain R6-SYA N1043S + Q1047A (UniProt Q14671)
T12 sequence: T1 sequence with R216S, H217Y, R220A

[13] = molecular target: T13, PUM1 PUF domain R6-SYR N1043S + Q1047R (UniProt Q14671)
T13 sequence: T1 sequence with R216S, H217Y

[14] = molecular target: T14, PUM1 PUF domain R6-TFA N1043T + Y1044F + Q1047A (UniProt Q14671)
T14 sequence: T1 sequence with R216T, H217F, R220A

[15] = molecular target: T15, PUM1 PUF domain R6-TFT N1043T + Y1044F + Q1047T (UniProt Q14671)
T15 sequence: T1 sequence with R216T, H217F, R220T

[16] = molecular target: T16, PUM1 PUF domain R6-TWA N1043T + Y1044W + Q1047A (UniProt Q14671)
T16 sequence: T1 sequence with R216T, H217W, R220A

[17] = molecular target: T17, PUM1 PUF domain R6-TWG N1043T + Y1044W + Q1047G (UniProt Q14671)
T17 sequence: T1 sequence with R216T, H217W, R220G

[18] = molecular target: T18, PUM1 PUF domain R6-TWL N1043T + Y1044W + Q1047L (UniProt Q14671)
T18 sequence: T1 sequence with R216T, H217W, R220L

[19] = molecular target: T19, PUM1 PUF domain R6-TWS N1043T + Y1044W + Q1047S (UniProt Q14671)
T19 sequence: T1 sequence with R216T, H217W, R220S

[20] = molecular target: T20, PUM1 PUF domain R6-TWT N1043T + Y1044W + Q1047T (UniProt Q14671)
T20 sequence: T1 sequence with R216T, H217W, R220T

**Q.** “GGCUAGAACUAGUGGAUCCCCCGGCGCCCGGCGGCUCGAGCCCGGGUAAGUGGAAAUAGUCUGCAUGCCGCCGGGCGCCAUGCCUGCAGGUCGACUCUAGAAAACAUG” was tested. Which binding signal (log2 enrichment (interaction score)) [1] did it give?
**A.** < -7.88

**Q.** What about the binding signal (log2 enrichment (interaction score)) [2] of the same sequence?
**A.** < -9.78

**Q.** What about the binding signal (log2 enrichment (interaction score)) [3] of the same sequence?
**A.** < -7.04

**Q.** What about the binding signal (log2 enrichment (interaction score)) [4] of the same sequence?
**A.** < -8.18

**Q.** And the binding signal (log2 enrichment (interaction score)) [5]?
**A.** < -8.31

**Q.** And the binding signal (log2 enrichment (interaction score)) [6]?
**A.** < -7.48

**Q.** And the binding signal (log2 enrichment (interaction score)) [7]?
**A.** < -7.36

**Q.** What about the binding signal (log2 enrichment (interaction score)) [8] of the same sequence?
**A.** < -7.94

**Q.** What about the binding signal (log2 enrichment (interaction score)) [9] of the same sequence?
**A.** < -10.8

**Q.** What about the binding signal (log2 enrichment (interaction score)) [10] of the same sequence?
**A.** < -8.85

**Q.** And the binding signal (log2 enrichment (interaction score)) [11]?
**A.** < -9.61

**Q.** And the binding signal (log2 enrichment (interaction score)) [12]?
**A.** < -7.43

**Q.** And the binding signal (log2 enrichment (interaction score)) [13]?
**A.** < -7.98

**Q.** What about the binding signal (log2 enrichment (interaction score)) [14] of the same sequence?
**A.** < -6.84

**Q.** What about the binding signal (log2 enrichment (interaction score)) [15] of the same sequence?
**A.** < -9.84

**Q.** And the binding signal (log2 enrichment (interaction score)) [16]?
**A.** < -8.19

**Q.** And the binding signal (log2 enrichment (interaction score)) [17]?
**A.** < -8.2

**Q.** And the binding signal (log2 enrichment (interaction score)) [18]?
**A.** < -7.9

**Q.** What about the binding signal (log2 enrichment (interaction score)) [19] of the same sequence?
**A.** < -8.4

**Q.** And the binding signal (log2 enrichment (interaction score)) [20]?
**A.** < -8.18
